Source: PubChem BioAssay AID504744 (Drosophila RNAi Screening Center, 2011)
The deposit covers about 23,000 reagents; below is an unselected part of those with a known target gene and a result. In the full data, 98 (0.43%) were called active. 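Only hit calls are given; the phospho-dAkt signals, z-scores and hit direction were not deposited.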

Purpose: 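Identify dsRNAs that increase or decrease phospho-dAkt after insulin treatment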 (primary screen)
Cell system: Drosophila Kc167 cells
Reagent: long dsRNA against Drosophila genes, 250 ng dsRNA per well of a 384-well plate
Time to read-out: 3 days of knock-down, then overnight serum-free starvation before stimulation
Conditions: bovine insulin at 387 nM for 10 minutes after 12 h without serum
Detection: 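Per-well phospho-dAkt level from an in-cell fluorescent antibody stain, divided by a DNA-dye signal; log2 residuals turned into z-scores that take cell number into account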
Active means: 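Under insulin, a gene counts as a hit if the average z-score of two replicates lies above 2.5 or below -2.5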

CG10352 (GeneID 32147) [DRSC19353] gave inactive. Depletion of DCX-EMAP (GeneID 39617) [DRSC10012] came out at: inactive. DCX-EMAP (GeneID 39617) [DRSC10013] scored inactive. With knock-down of Pbp45 (GeneID 41920) [DRSC16509], the record shows inactive. With knock-down of tex (GeneID 40983) [DRSC16517], the record shows inactive. Against CG2150 (GeneID 43745) [DRSC15420], the values are inactive.

With knock-down of CG32228 (GeneID 326202) [DRSC22296], the screen gave inactive. With knock-down of yl (GeneID 32367) [DRSC20387], the screen gave inactive. Silencing of barr (GeneID 35287) [DRSC03488] resulted in: inactive. Knock-down of NetA (GeneID 32398) [DRSC20261] gave: inactive. Depletion of Tango9 (GeneID 41450) [DRSC14173] came out at: inactive. For CG7488 (GeneID 41597) [DRSC16250] the deposit lists inactive.

Silencing of CG1324 (GeneID 33060) [DRSC20496] resulted in: inactive. For atk (GeneID 40266) [DRSC11418], the values are inactive. Against atk (GeneID 40266) [DRSC11769], the values are inactive. CG31275 (GeneID 326131) [DRSC16919] gave inactive. For beta4GalNAcTB (GeneID 43425) [DRSC14869] the deposit lists inactive. CG42319 (GeneID 36473) [DRSC06645] scored inactive.

With knock-down of CG42319 (GeneID 36473) [DRSC06646] the results were inactive. CG42319 (GeneID 36473) [DRSC22426] showed inactive. Knock-down of gNacalpha (GeneID 33279) [DRSC00654] came out at: active. CG4702 (GeneID 41472) [DRSC15626] showed inactive. Npc2c (GeneID 41233) [DRSC15523] showed inactive. Silencing of CG9795 (GeneID 40545) [DRSC12336] gave: inactive.

After knock-down of Ktch (GeneID 43681) [DRSC15094], the screen gave inactive. Against tko (GeneID 31228) [DRSC18844], the values are inactive. Knock-down of CG12377 (retired record) (GeneID 40473) [DRSC11671] resulted in: inactive. CG12377 (retired record) (GeneID 40473) [DRSC11672] scored inactive. Silencing of ear (GeneID 44451) [DRSC15675] came out at: inactive. For SmD1 (GeneID 44668) [DRSC09800], the values are inactive.

Against DCP2 (GeneID 39722) [DRSC10597] the deposit lists inactive. sro (GeneID 43512) [DRSC14469] showed inactive. After knock-down of Nplp1 (GeneID 38003) [DRSC04370], the record shows inactive. Against RyR (GeneID 49090) [DRSC07543] the deposit lists inactive. For Cnep1r2 (GeneID 39204) [DRSC10950], the values are inactive. CG10494 (GeneID 37453) [DRSC04072] gave inactive.

Silencing of CG18540 (GeneID 37097) [DRSC06767] resulted in: inactive. Silencing of CG6171 (GeneID 41872) [DRSC15982] came out at: inactive. gdrd (GeneID 39599) [DRSC10020] gave inactive. After knock-down of CG7945 (GeneID 39679) [DRSC10934] the results were inactive. Against mbt (GeneID 32631) [DRSC20348], the values are inactive. CG8475 (GeneID 34114) [DRSC03091] scored inactive.

Zdhhc8 (GeneID 31887) [DRSC18044] gave inactive. Zdhhc8 (GeneID 31887) [DRSC18122] gave inactive. For pdgy (GeneID 32426) [DRSC19064], the values are inactive. pdgy (GeneID 32426) [DRSC19341] gave inactive. After knock-down of CG6689 (GeneID 41345) [DRSC16095], the screen gave inactive. With knock-down of jbug (GeneID 43997) [DRSC03952], the screen gave inactive.

Depletion of jbug (GeneID 43997) [DRSC04114] resulted in: inactive. Knock-down of jbug (GeneID 43997) [DRSC04167] resulted in: inactive. Against jbug (GeneID 43997) [DRSC04388], the entry reads inactive. Glt (GeneID 34193) [DRSC03333] showed inactive. With knock-down of Ugt35E2 (GeneID 53506) [DRSC16083], the screen gave inactive. After knock-down of crm (GeneID 31268) [DRSC18754], the screen gave inactive.

Knock-down of CG6236 (GeneID 41857) [DRSC15999] gave: inactive. Silencing of Gr33a (GeneID 34641) [DRSC02589] gave: inactive. CG7029 (GeneID 42703) [DRSC16177] scored inactive.
